According to PubChem BioAssay AID1671190 (National Center for Advancing Translational Sciences (NCATS), 2021):
Out of some 580,000 compounds screened, about 6,100 (1.1%) were called active. The shares of active, inactive and inconclusive entries below differ from those in the screen. The call rests on the fitted dose curve; in most records, active means well fitted inhibition curve with a large enough effect; inconclusive means small, poorly fitted or top-dose-only effect, or another doubt; inactive means no such curve, though single readings can be large or run the other way. Where the call is inconclusive, the potency comes from a doubtful curve fit.

Amino acid sequences for entries named in this document (tags omitted). A change or cut given only in a name is not applied to a line headed by its entry.
UniProt P18054: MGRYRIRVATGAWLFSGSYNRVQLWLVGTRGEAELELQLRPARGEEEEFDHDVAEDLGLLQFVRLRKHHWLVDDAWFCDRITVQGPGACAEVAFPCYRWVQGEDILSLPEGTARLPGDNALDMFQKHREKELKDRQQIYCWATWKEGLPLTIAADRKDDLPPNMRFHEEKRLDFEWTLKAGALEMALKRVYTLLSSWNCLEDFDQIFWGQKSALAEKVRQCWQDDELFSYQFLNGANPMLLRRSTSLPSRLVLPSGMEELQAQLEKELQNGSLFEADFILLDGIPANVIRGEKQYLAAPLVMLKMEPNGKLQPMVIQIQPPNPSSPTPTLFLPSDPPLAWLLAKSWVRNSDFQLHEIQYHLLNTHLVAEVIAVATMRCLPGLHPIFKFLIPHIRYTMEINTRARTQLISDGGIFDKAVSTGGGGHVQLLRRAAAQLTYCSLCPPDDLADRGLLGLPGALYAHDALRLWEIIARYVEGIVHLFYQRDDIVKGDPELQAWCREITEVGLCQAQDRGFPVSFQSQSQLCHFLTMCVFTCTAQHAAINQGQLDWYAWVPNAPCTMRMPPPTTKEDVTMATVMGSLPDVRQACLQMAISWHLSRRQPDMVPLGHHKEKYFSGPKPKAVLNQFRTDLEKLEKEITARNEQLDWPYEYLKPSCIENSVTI

molecular target: Polyunsaturated fatty acid lipoxygenase ALOX12 (Homo sapiens) (UniProt P18054); experiment: Primary qHTS assay for inhibitors of human arachidonate 12S-lipoxygenase (ALOX12): Round 2; conditions: purified 12hLO, xylenol orange hydroperoxide absorbance; activity change, negative = inhibition: at 108 µM (top of the series) unless noted
Summary of the method: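 Purified human 12hLO (150 nM final) in 25 mM Hepes, 0.01% Triton X-100, pH 7.0 was preincubated 15 min at room temperature with compound. Then 40 uM arachidonic acid was added, 30 min. Hydroperoxide was read by Fe-XO absorbance ratio 573/405 nm.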
On the % scale 0 is the no-effect control and ±100 the full control effect; potency means the concentration at half of the fitted maximal effect.

**Q.** With `CCCCSc1oc(-c2ccco2)nc1S(=O)(=O)c1ccccc1` as the compound, how does the Potency read?
**A.** Its Potency is inconclusive: 44.7 µM [inhibitor, partial curve, poor fit].

**Q.** `CC1(C(=O)NS(=O)(=O)c2ccc(C#N)cc2)CCN1C(=O)Cc1ccc(-c2ccccc2)cc1` (stereo unspecified) was tested. Which Potency did it give?
**A.** The Potency was inconclusive: 79.4 µM [inhibitor, partial curve, poor fit].

**Q.** `Cc1ccc(C2C(C#N)=C(N)SC(N)=C2C#N)cc1` was tested. Which Potency did it give?
**A.** The Potency was inconclusive: 44.7 µM [inhibitor, partial curve, poor fit].

**Q.** Which Potency does the source give for `COC(=O)CSc1nnc(C2COc3ccccc3O2)n1-c1ccccc1` (stereo unspecified) here?
**A.** Its Potency is “inactive”.

**Q.** How did the Potency turn out when `CC(C)c1ccc(/C=N/NC(=O)c2cc(-c3cccc([N+](=O)[O-])c3)n[nH]2)cc1` was run?
**A.** The Potency was “inactive”.

**Q.** `CCC(=O)NC(c1ccc(C)cc1)c1cc([N+](=O)[O-])c2cccnc2c1O` (stereo unspecified) was tested. Which Potency did it give?
**A.** The Potency was active: 11.2 µM.

**Q.** How did the Potency turn out when `COc1ccc(C(=O)/C=C2/c3ccccc3CC(C)(C)N2C)cc1` was run?
**A.** Its Potency is “inactive”.

**Q.** How did the Potency turn out when `COc1ccc(NC(=O)c2nc[nH]c2C(=O)N(C)CCO)cc1` was run?
**A.** Its Potency is inconclusive: 31.6 µM [inhibitor, partial curve, poor fit].

**Q.** `O=C(O)CC(C(=O)OCCOc1ccccc1)N1CCOCC1` (stereo unspecified) was tested. Which Potency did it give?
**A.** The Potency was inconclusive: 50.1 µM [inhibitor, partial curve, poor fit].

**Q.** `COc1ccc(CCNC(=O)C(=O)NCc2n[nH]c(=O)c3ccccc23)cc1` was tested. Which Potency did it give?
**A.** Its Potency is “inactive”.

**Q.** With `CC(C)c1ccc(CCNC(=O)Cc2cccc3cccnc23)cc1` as the compound, how does the Potency read?
**A.** The Potency was “inactive”.

**Q.** How did the Potency turn out when `CCCn1c(N)c(C(=O)CSc2nnc(C3CC3)n2Cc2ccccc2)c(=O)n(C)c1=O` was run?
**A.** Its Potency is inconclusive: 100 µM [inhibitor, single point].

**Q.** Which Potency does the source give for `O=C(COc1ccccc1)N1CCC(n2cc(-c3nc(-c4ccccc4)no3)nn2)CC1` here?
**A.** Its Potency is inconclusive: 44.7 µM [inhibitor, partial curve, poor fit].

**Q.** With `CCC(Oc1ccccc1OC)C(=O)Nc1ccc2c(c1)OCCO2` (stereo unspecified) as the compound, how does the Potency read?
**A.** The Potency was inconclusive: 44.7 µM [inhibitor, partial curve, poor fit].

**Q.** `Cc1ccc(C(C)NC(=O)c2cccs2)cc1` (stereo unspecified) was tested. Which Potency did it give?
**A.** The Potency was active: 10 µM.

**Q.** With `Cc1cc(N2C(=O)C(O)=C(C(=O)c3ccc(C)o3)C2c2cccc(Oc3ccccc3)c2)no1` (stereo unspecified) as the compound, how does the Potency read?
**A.** Its Potency is inconclusive: 44.7 µM [inhibitor, partial curve, poor fit].

**Q.** For `CCOC(=O)c1cnc2ccc(C(=O)OC)cc2c1Nc1cccc(C(=O)O)c1`, which Potency is on record?
**A.** Its Potency is “inactive”.

**Q.** `COc1ccc(NC(=O)CN2C(=O)C(C)(C)c3cc(S(=O)(=O)N4CCCC4)ccc32)cc1Cl` was tested. Which Potency did it give?
**A.** Its Potency is “inactive”.

**Q.** `O=C(COC(=O)C1CC(=O)N(Cc2ccco2)C1)c1ccc(OC(=O)c2ccco2)cc1` (stereo unspecified) was tested. Which Potency did it give?
**A.** Its Potency is “inactive”.

**Q.** With `CC(=O)Nc1ccc(NC(=O)CC2Sc3ccc(C(F)(F)F)cc3NC2=O)cc1` (stereo unspecified) as the compound, how does the Potency read?
**A.** The Potency was inconclusive: 39.8 µM [inhibitor, partial curve, poor fit].

**Q.** How did the Potency turn out when `Cc1cc2oc(C(=O)Nc3c(C)n(C)n(-c4ccccc4)c3=O)c(C)c2cc1C` was run?
**A.** The Potency was inconclusive: 35.5 µM [inhibitor, partial curve, poor fit].

**Q.** How did the Potency turn out when `CN(CC(=O)Nc1ccc(Cl)c(C(F)(F)F)c1)C(=O)C1CCN(C(=O)c2ccc(Cl)cc2)CC1` was run?
**A.** The Potency was “inactive”.

**Q.** How did the Potency turn out when `CCCOc1ccc(-c2nc(=S)[nH][nH]2)cc1` was run?
**A.** The Potency was inconclusive: 56.2 µM [inhibitor, partial curve, poor fit].

**Q.** `CS(=O)(=O)N1CCc2cc(C(=O)N3CCN(c4ccccc4)CC3)ccc21` was tested. Which Potency did it give?
**A.** Its Potency is inconclusive: 126 µM [inhibitor, partial curve, poor fit].

**Q.** How did the Potency turn out when `COc1ccc(C)cc1NC(=O)C(Sc1nnnn1C1CCCC1)c1ccccc1` (stereo unspecified) was run?
**A.** Its Potency is inconclusive: 100 µM [inhibitor, single point].

**Q.** For `O=C(CN1CC(c2ccccc2)CC1=O)OCc1cccc(Br)c1` (stereo unspecified), which Potency is on record?
**A.** Its Potency is inconclusive: 0.355 µM [inhibitor, full curve, poor fit].

**Q.** How did the Potency turn out when `CC1=CC2=NC(=O)CC(C)(C(=O)N(CC(=O)NC3CCCC3)Cc3ccc(Cl)cc3)N2C=C1` (stereo unspecified) was run?
**A.** The Potency was inconclusive: 31.6 µM [inhibitor, single point].

**Q.** Which Potency does the source give for `CCC(C)Cn1cnc2c(Sc3c([N+](=O)[O-])ncn3C)nc(N)nc21` (stereo unspecified) here?
**A.** The Potency was “inactive”.

**Q.** `O=C(N1CCCC1)N1CCCC(c2nnc3n2CCNC3)C1` (stereo unspecified) was tested. Which Potency did it give?
**A.** The Potency was inconclusive: 3.16 µM [inhibitor, full curve, poor fit].

**Q.** Which Potency does the source give for `NC(=O)c1cccn1Cc1cccc(Cl)c1` here?
**A.** Its Potency is “inactive”.

**Q.** For `COC(=O)c1ccc2nc(-c3cccc(Cl)c3)c(Cc3cccc(Cl)c3)n2c1`, which activity change, negative = inhibition is on record?
**A.** Its activity change, negative = inhibition is inconclusive: -33.2% [inhibitor].

**Q.** With `CSC1=NC(C)(C)C=C(/C=C/c2ccc(Cl)cc2Cl)N1` as the compound, how does the Potency read?
**A.** The Potency was inconclusive: 50.1 µM [inhibitor, partial curve, poor fit].

**Q.** How did the Potency turn out when `O=S(=O)(Nc1ccc(N2CCOCC2)cc1)c1cc(Cl)ccc1Cl` was run?
**A.** Its Potency is inconclusive: 100 µM [inhibitor, partial curve, poor fit].

**Q.** With `Cc1ccc(-n2ccnc2SC2CCCCC2=O)cc1C` (stereo unspecified) as the compound, how does the Potency read?
**A.** Its Potency is “inactive”.

**Q.** `c1ccc(-c2cccc(N3CC[C@@]4(CCCNC4)C3)c2)cc1` was tested. Which Potency did it give?
**A.** Its Potency is inconclusive: 7.08 µM [inhibitor, partial curve, poor fit].

**Q.** `Clc1ccccc1/C=C/C=N/Nc1nc(N2CCOCC2)nc(N2CCOCC2)n1` was tested. Which Potency did it give?
**A.** Its Potency is “inactive”.

**Q.** Which Potency does the source give for `CCC(=O)NC(=S)Nc1ccc(NC(=O)COc2ccc(Cl)c(C)c2)cc1` here?
**A.** The Potency was inconclusive: 28.2 µM [inhibitor, partial curve].

**Q.** With `O=C(Cc1n[nH]c(=O)c2ccccc12)NCc1ccccc1CN1CCCC1` as the compound, how does the Potency read?
**A.** Its Potency is “inactive”.

**Q.** How did the Potency turn out when `CCN1CCN(CCNC(=O)CCC[C@H]2NC[C@@H]3C[C@H]2CN(Cc2ccccc2)C3)CC1` was run?
**A.** Its Potency is inconclusive: 12.6 µM [inhibitor, partial curve].

**Q.** `COc1cccc(N2CCN(c3ncnc4onc(-c5ccc(F)cc5)c34)CC2)c1` was tested. Which Potency did it give?
**A.** The Potency was inconclusive: 89.1 µM [inhibitor, partial curve, poor fit].

**Q.** How did the Potency turn out when `Cc1nonc1OCC(C)(COc1nonc1C)NC(=O)c1ccc(Cl)cc1` was run?
**A.** The Potency was inconclusive: 50.1 µM [inhibitor, single point].

**Q.** Which Potency does the source give for `O=C(C1CCCN(S(=O)(=O)c2cccc3nsnc23)C1)N1CCN(c2ccccc2Cl)CC1` (stereo unspecified) here?
**A.** Its Potency is inconclusive: 2.51 µM [inhibitor, full curve, poor fit].

**Q.** `COc1nc(OCC#N)nc(N2CCOCC2)n1` was tested. Which Potency did it give?
**A.** The Potency was “inactive”.

**Q.** `O=C(CCCCCn1c(=O)[nH]c2ccccc2c1=O)NCc1ccccc1` was tested. Which Potency did it give?
**A.** Its Potency is inconclusive: 89.1 µM [inhibitor, partial curve, poor fit].

**Q.** For `COC(=O)[C@]1(C)N[C@H](CN(C)C(=O)c2ccccc2)[C@@H]2C(=O)N(C)C(=O)[C@@H]21`, which Potency is on record?
**A.** The Potency was inconclusive: 39.8 µM [inhibitor, single point].

**Q.** With `O=C(NCC(c1cccs1)N1CCOCC1)c1ccc(Cl)c([N+](=O)[O-])c1` (stereo unspecified) as the compound, how does the Potency read?
**A.** The Potency was “inactive”.

**Q.** How did the Potency turn out when `Cc1sc(N2CCN(S(=O)(=O)c3ccc4c(c3)NC(=O)CO4)CC2)nc1-c1ccccc1` was run?
**A.** Its Potency is “inactive”.

**Q.** For `c1ccc(-c2cc(NC3CCCC3)nc3ccccc23)cc1`, which Potency is on record?
**A.** Its Potency is inconclusive: 35.5 µM [inhibitor, partial curve, poor fit].

**Q.** `CCCCNC(=O)c1ccccc1NC(=O)c1ccccc1N(C)S(C)(=O)=O` was tested. Which Potency did it give?
**A.** Its Potency is inconclusive: 63.1 µM [inhibitor, partial curve, poor fit].

**Q.** Which Potency does the source give for `OCCCNc1cc(-c2ccccc2)nc2cc(-c3ccc(F)cc3)nn12` here?
**A.** The Potency was “inactive”.

**Q.** With `CCN(CC)S(=O)(=O)c1cc(C)c(C)c(NS(=O)(=O)/C=C/c2ccccc2)c1` as the compound, how does the Potency read?
**A.** Its Potency is “inactive”.

**Q.** Which Potency does the source give for `CC(C)(C)c1coc([C@@H]2COCCN2Cc2ccc(Cl)cc2)n1` here?
**A.** The Potency was “inactive”.

**Q.** With `COc1cc(Cn2c3ccc(NC(=O)CCc4ccccc4)cc3c(=O)n2C)ccc1F` as the compound, how does the Potency read?
**A.** Its Potency is inconclusive: 6.31 µM [inhibitor, full curve].

**Q.** With `CC1(C(O)(C#CC[N+]2(Cc3ccccc3Cl)CCCCC2)c2ccccc2)CCCC1` (stereo unspecified) as the compound, how does the Potency read?
**A.** The Potency was inconclusive: 56.2 µM [inhibitor, partial curve, poor fit].

**Q.** Which Potency does the source give for `CCOC(=O)C(C#N)c1nc2ccccc2nc1N1CCCC1` (stereo unspecified) here?
**A.** The Potency was inconclusive: 11.2 µM [inhibitor, partial curve, poor fit].

**Q.** `COC(=O)c1c(C)[nH]c(C(=O)/C=C/c2ccccc2)c1C` was tested. Which Potency did it give?
**A.** Its Potency is “inactive”.

**Q.** Which Potency does the source give for `CC(=O)Nc1ccc(CN2C(=O)OC3(CCN(Cc4ccc(C#N)cc4)CC3)C2(C)c2ccccc2)cc1` (stereo unspecified) here?
**A.** The Potency was inconclusive: 20 µM [inhibitor, full curve, poor fit].

**Q.** Which Potency does the source give for `CSc1nnc(N2C(=O)C(O)=C(C(=O)c3ccco3)C2c2ccccc2)s1` (stereo unspecified) here?
**A.** The Potency was inconclusive: 15.8 µM [inhibitor, partial curve, poor fit].

**Q.** With `Brc1ccc(CN2CC[C@H]3C=CCc4cccc(c43)C2)cc1` as the compound, how does the Potency read?
**A.** Its Potency is inconclusive: 70.8 µM [inhibitor, partial curve, poor fit].

**Q.** How did the Potency turn out when `CC(C)n1ncc2c(C(=O)NCc3ccccc3F)c3c(nc21)CCC3` was run?
**A.** Its Potency is “inactive”.

**Q.** Which Potency does the source give for `Cc1cc(C)cc(N=C2NC(=O)/C(=C/c3cccs3)S2)c1` here?
**A.** The Potency was inconclusive: 39.8 µM [inhibitor, partial curve, poor fit].

**Q.** For `COc1ccc(N=N/C(C(C)=O)=C(/C)O)cc1`, which Potency is on record?
**A.** The Potency was inconclusive: 15.8 µM [inhibitor, partial curve, poor fit].

**Q.** `O=C(CSc1nc(-c2cccs2)nc2cc(=O)[nH]n12)Nc1ccccc1F` was tested. Which Potency did it give?
**A.** Its Potency is “inactive”.

**Q.** With `COc1ccc(Oc2coc3cc(OCc4ccccc4F)ccc3c2=O)cc1` as the compound, how does the Potency read?
**A.** Its Potency is “inactive”.

**Q.** `COC(=O)CCCC1=CC2=C(c3ccccc3)C(=O)C(C)(OC(=O)C3CCCC3)C(=O)C2=CN1Cc1ccc(OC)cc1` (stereo unspecified) was tested. Which Potency did it give?
**A.** Its Potency is inconclusive: 50.1 µM [inhibitor, partial curve, poor fit].

**Q.** For `CSCCC(Nc1nc2ccccc2s1)C(=O)O` (stereo unspecified), which Potency is on record?
**A.** The Potency was inconclusive: 39.8 µM [inhibitor, partial curve, poor fit].
